From article doi:10.1101/2023.02.27.528078
Read-outs that look alike come from different tables or passages of the source. These are yes or no findings as the source states them, for the method shown. In cells and extracts the contact can be indirect. Some entries that bind do so weakly or less than the wild type.

Chains of the proteins cited; added tags and fusions are not shown. Lines headed by an entry give the natural chain unless they say otherwise; changes in a name come on top. A line that says so, or that is headed by a name, gives the form on record, which may keep a tag or linker.
UniProt P60953: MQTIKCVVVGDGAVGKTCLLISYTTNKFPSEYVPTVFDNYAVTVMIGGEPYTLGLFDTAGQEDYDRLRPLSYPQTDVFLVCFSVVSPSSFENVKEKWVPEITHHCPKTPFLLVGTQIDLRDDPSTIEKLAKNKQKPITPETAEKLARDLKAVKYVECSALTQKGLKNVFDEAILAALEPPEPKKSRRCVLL
GFP-tagged constitutively active (CA) V12 CDC42u (ubiquitous CDC42 isoform) (P60953, form named): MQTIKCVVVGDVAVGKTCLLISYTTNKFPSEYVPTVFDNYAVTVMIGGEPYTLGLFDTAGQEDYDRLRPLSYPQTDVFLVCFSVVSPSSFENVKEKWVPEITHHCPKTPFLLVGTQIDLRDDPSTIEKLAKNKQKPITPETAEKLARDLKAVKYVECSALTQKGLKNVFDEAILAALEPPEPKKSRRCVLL
GFP-tagged constitutively active (CA) V12 CDC42b (brain CDC42 isoform) (P60953, form named): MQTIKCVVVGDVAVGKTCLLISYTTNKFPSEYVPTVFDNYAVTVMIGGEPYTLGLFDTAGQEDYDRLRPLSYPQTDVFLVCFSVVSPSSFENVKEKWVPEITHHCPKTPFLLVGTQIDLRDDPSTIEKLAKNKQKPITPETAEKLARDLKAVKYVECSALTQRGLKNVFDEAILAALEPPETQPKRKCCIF
UniProt O00401: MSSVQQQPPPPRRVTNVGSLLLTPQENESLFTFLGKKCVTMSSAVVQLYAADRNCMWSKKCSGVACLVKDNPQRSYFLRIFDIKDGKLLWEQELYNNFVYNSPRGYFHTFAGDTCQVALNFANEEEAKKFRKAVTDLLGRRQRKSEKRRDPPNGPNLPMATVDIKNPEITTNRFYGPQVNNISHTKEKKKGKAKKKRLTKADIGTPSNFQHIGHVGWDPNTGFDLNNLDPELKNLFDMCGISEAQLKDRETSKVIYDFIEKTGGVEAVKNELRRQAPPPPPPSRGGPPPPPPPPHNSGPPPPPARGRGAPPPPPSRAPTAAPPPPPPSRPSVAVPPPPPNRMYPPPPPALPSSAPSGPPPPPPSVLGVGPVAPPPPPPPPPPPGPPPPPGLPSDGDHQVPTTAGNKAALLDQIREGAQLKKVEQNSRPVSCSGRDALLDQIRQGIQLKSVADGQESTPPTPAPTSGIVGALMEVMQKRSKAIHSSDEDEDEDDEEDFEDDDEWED

How the values were obtained:
Assay in all cases: co-IP
[1] = target: GFP-tagged constitutively active (CA) V12 CDC42u (ubiquitous CDC42 isoform) (UniProt P60953)
[2] = target: GFP-tagged constitutively active (CA) V12 CDC42b (brain CDC42 isoform) (UniProt P60953)
[3] = target: GFP-tagged constitutively active (CA) V12 CDC42u (ubiquitous CDC42 isoform) (UniProt P60953); remark: listed apart in the source
[4] = target: GFP-tagged constitutively active (CA) V12 CDC42b (brain CDC42 isoform) (UniProt P60953); remark: listed apart in the source

Row | binding [1] | binding [2] | binding [3] | binding [4] | Molecule
1 | binds | binds | – | – | N-WASP (from UniProt O00401 1-505)
2 | – | – | binds | binds | PKCζ (enzyme, UniProt Q05513 1-592) MPSRTGPKMEGSGGRVRLKAHYGGDIFITSVDAATTFEELCEEVRDMCRLHQQHPLTLKWVDSEGDPCTVSSQMELEEAFRLARQCRDEGLIIHVFPSTPEQPGLPCPGEDKSIYRRGARRWRKLYRANGHLFQAKRFNRRAYCGQCSERIWGLARQGYRCINCKLLVHKRCHGLVPLTCRKHMDSVMPSQEPPVDDKNEDADLPSEETDGIAYISSSRKHDSIKDDSEDLKPVIDGMDGIKISQGLGLQDFDLIRVIGRGSYAKVLLVRLKKNDQIYAMKVVKKELVHDDEDIDWVQTEKHVFEQASSNPFLVGLHSCFQTTSRLFLVIEYVNGGDLMFHMQRQRKLPEEHARFYAAEICIALNFLHERGIIYRDLKLDNVLLDADGHIKLTDYGMCKEGLGPGDTTSTFCGTPNYIAPEILRGEEYGFSVDWWALGVLMFEMMAGRSPFDIITDNPDMNTEDYLFQVILEKPIRIPRFLSVKASHVLKGFLNKDPKERLGCRPQTGFSDIKSHAFFRSIDWDLLEKKQALPPFQPQITDDYGLDNFDTQFTSEPVQLTPDDEDAIKRIDQSEFEGFEYINPLLLSTEESV
